Laboratory results reported in US20140079713A1.
No constants are given. Whether binding was seen depends on the method and setting. For some assays here: Binding seen in cells or lysates may run through a third protein. Some results given as binding are weak or reduced against the parent protein; the word gives no strength. For some assays here: Sequences can lack the tags named with a protein.

Amino acid sequences for entries named in this document (tags omitted). A change or cut given only in a name is not applied to a line headed by its entry. Chains listed by the source or under a name are the forms on record and can include a tag or linker. Residues count along the entry.
ShhN-AP WT (Q62226, residues 25-198): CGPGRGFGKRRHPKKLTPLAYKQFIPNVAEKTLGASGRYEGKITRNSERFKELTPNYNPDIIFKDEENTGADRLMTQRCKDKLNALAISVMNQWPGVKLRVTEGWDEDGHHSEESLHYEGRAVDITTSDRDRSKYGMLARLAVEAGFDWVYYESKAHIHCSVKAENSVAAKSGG
ShhN-AP E90A (Q62226, form named): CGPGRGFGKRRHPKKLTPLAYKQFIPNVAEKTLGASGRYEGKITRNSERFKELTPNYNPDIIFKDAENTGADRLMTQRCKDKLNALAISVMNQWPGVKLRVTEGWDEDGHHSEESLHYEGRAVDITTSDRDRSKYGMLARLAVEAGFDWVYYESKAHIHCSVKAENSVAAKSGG

Assays:
PTCH1-GFP (mouse) = target: T1, PTCH1-GFP (mouse) (UniProt Q61115); assay: ShhN-AP binding to cells expressing the receptor
T1 sequence (looked up): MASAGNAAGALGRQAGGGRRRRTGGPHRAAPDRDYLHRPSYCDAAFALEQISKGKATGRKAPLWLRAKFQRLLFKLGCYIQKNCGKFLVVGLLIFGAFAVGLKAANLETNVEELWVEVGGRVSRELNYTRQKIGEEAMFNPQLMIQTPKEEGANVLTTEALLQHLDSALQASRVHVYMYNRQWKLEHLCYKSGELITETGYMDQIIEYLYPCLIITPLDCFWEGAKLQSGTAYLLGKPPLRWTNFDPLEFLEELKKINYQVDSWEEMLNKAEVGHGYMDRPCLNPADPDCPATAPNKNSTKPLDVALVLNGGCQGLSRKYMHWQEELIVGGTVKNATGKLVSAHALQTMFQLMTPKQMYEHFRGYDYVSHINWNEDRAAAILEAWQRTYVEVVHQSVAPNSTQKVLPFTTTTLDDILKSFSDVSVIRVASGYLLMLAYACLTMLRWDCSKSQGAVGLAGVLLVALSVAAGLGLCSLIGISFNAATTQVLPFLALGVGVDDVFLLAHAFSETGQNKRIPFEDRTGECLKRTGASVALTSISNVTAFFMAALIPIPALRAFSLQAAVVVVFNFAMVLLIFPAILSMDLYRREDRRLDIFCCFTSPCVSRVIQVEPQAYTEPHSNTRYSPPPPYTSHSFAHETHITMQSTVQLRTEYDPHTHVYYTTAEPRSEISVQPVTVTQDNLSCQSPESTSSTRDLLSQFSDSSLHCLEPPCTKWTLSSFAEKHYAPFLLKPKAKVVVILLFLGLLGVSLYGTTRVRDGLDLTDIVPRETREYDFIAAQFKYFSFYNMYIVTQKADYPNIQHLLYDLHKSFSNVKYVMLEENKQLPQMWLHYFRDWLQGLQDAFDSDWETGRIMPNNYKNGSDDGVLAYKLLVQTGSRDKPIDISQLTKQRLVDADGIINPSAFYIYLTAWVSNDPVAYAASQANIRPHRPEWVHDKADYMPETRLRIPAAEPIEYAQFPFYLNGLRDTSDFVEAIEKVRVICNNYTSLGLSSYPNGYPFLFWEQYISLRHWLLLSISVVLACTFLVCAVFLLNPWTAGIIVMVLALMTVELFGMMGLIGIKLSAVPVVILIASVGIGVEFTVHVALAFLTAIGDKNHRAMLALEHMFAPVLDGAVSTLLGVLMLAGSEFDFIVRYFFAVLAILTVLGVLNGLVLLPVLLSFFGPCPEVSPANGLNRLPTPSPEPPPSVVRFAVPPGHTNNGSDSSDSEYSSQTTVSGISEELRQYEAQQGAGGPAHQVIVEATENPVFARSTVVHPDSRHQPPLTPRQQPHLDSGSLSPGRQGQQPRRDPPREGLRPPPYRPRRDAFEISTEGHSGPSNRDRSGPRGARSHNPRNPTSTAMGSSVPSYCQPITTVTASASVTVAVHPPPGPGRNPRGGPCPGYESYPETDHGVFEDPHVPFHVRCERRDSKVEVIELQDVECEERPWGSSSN

[1] = target: T2, CDON (pEGFP-mCdon) (mouse) (UniProt Q32MD9); assay: summary table of the Shh-receptor binding assays with AP-tagged ShhN
T2 sequence (looked up): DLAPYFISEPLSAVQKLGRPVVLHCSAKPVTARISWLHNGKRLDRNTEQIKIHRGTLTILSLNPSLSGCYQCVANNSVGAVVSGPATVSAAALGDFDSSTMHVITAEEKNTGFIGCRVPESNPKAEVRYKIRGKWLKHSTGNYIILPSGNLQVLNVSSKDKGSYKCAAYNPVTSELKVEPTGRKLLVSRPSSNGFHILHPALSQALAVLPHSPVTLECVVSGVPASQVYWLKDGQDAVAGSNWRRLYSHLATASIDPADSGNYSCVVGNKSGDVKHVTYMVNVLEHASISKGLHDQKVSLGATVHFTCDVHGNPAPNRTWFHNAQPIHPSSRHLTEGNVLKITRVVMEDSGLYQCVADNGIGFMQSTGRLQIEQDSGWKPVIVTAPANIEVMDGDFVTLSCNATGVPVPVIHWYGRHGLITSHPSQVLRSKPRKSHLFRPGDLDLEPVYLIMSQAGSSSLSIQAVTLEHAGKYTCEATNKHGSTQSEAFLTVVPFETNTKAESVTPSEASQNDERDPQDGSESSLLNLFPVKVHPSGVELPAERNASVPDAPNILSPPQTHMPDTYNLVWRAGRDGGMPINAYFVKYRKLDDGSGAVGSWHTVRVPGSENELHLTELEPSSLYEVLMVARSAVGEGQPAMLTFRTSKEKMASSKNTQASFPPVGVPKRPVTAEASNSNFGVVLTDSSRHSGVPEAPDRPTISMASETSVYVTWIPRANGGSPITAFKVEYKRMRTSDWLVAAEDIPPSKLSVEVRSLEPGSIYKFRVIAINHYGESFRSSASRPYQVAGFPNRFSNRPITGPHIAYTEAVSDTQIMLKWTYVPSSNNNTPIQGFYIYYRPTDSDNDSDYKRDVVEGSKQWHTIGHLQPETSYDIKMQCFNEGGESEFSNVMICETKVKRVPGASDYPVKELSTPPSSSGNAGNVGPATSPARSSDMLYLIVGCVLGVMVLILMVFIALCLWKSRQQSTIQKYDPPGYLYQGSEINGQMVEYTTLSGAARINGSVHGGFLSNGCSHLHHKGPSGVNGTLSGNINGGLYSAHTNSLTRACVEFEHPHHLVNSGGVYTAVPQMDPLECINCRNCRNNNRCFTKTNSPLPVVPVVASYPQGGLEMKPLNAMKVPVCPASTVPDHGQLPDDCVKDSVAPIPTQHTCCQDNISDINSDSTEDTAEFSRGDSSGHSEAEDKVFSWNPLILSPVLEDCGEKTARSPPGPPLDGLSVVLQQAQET

BOC-GFP (mouse) = target: T3, BOC-GFP (mouse) (UniProt Q6AZB0); assay: as above
T3 sequence (looked up): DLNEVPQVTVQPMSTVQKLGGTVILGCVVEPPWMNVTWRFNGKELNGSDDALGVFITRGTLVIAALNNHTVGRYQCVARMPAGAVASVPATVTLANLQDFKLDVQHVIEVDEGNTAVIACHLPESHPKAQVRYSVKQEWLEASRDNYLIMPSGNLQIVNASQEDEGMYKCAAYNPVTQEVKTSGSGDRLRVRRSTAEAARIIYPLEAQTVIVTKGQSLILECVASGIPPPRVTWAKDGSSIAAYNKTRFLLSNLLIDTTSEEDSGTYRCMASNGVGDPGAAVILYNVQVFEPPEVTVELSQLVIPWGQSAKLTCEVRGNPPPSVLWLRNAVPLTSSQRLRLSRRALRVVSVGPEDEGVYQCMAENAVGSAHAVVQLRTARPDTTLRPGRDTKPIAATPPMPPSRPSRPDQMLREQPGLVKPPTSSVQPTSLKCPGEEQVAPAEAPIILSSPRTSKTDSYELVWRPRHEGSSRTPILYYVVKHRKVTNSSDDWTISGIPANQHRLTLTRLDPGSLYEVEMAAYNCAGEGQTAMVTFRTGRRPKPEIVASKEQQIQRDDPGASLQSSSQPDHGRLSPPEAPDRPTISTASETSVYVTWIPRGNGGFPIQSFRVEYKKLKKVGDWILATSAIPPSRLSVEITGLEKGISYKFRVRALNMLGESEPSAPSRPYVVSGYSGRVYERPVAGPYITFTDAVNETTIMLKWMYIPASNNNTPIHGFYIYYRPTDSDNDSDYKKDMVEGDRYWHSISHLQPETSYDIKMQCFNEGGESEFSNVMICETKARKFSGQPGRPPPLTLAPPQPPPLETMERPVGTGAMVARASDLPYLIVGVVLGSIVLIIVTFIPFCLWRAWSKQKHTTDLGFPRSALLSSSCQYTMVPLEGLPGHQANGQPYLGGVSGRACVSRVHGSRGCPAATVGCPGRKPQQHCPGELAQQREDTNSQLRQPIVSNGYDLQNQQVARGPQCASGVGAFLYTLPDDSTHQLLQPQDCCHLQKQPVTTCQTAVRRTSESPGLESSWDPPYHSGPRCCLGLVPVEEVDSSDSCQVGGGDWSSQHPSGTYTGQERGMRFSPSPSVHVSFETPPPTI

GAS1 (mouse) = target: T4, GAS1 (mouse) (UniProt Q01721); assay: as above
T4 sequence (looked up): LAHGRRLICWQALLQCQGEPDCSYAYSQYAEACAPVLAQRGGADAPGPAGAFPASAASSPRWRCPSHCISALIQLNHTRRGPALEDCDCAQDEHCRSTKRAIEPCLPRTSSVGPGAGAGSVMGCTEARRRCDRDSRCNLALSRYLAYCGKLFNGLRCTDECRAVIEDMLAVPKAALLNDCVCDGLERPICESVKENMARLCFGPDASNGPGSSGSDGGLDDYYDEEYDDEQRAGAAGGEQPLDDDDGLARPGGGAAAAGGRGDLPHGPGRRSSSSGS

[2] = target: T5, PTCH1-GFP (mouse), Q61115; assay: co-immunoprecipitation (anti-GFP IP), COS7 lysates; conditions: remark: other sources report otherwise
T5 chain: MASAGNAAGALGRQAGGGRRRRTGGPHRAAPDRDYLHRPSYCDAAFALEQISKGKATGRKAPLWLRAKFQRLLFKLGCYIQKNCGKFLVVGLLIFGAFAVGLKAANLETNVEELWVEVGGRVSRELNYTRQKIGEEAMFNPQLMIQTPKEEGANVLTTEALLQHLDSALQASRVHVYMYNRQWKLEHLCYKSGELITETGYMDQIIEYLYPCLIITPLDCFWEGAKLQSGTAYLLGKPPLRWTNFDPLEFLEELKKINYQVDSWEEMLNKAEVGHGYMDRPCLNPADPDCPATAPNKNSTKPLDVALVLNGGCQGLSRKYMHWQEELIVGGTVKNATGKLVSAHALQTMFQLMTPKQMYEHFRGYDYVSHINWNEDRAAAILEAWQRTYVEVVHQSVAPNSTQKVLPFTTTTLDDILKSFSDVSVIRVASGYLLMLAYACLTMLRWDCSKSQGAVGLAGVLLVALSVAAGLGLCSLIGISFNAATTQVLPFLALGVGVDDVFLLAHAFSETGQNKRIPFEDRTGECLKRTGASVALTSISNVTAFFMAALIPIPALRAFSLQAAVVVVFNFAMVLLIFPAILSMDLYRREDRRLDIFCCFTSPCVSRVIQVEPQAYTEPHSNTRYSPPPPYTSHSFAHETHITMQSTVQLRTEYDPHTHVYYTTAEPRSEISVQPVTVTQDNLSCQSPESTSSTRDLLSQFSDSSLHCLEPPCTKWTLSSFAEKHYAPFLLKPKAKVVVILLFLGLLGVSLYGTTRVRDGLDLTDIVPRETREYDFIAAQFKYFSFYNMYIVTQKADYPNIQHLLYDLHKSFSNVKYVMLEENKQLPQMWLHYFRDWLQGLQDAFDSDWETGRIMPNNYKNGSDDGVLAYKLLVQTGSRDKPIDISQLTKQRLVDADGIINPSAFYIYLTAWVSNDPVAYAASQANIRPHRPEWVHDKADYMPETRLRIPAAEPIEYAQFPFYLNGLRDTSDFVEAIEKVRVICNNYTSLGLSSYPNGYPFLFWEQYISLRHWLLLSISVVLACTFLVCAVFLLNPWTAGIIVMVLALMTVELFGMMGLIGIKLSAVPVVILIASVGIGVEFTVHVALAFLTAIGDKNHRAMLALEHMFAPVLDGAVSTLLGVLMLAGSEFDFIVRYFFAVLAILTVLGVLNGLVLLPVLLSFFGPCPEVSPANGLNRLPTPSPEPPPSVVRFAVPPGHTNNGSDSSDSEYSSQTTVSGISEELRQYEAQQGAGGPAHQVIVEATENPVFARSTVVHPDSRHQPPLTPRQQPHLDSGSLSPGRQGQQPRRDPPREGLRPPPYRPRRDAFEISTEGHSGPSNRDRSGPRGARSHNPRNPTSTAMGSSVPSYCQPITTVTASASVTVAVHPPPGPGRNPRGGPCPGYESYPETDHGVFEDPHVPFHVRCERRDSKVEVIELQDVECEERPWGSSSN

[3] = target: T5, PTCH1-GFP (mouse), Q61115; assay: co-immunoprecipitation (anti-GAS1 IP, anti-GFP blot), COS7 lysates; conditions: remark: other sources report otherwise
[4] = target: T5, PTCH1-GFP (mouse), Q61115; assay: co-immunoprecipitation (anti-GFP IP), COS7 lysates, FIG. 5A; conditions: remark: other sources report otherwise
[5] = target: T5, PTCH1-GFP (mouse), Q61115; assay: co-immunoprecipitation (anti-GFP IP), COS7 lysates, FIG. 10; conditions: remark: other sources report otherwise

“ShhN-AP E90A (from UniProt Q62226 25-198) (ligand)” was tested, and the binding (PTCH1-GFP (mouse)) was “binds”.

With “ShhN-AP WT (from UniProt Q62226 25-198) (ligand)” the binding [1] was “binds”, the binding (BOC-GFP (mouse)) was “binds” and the binding (GAS1 (mouse)) was “binds”.

B1: GAS1, Q01721 39-315 (receptor, mouse, UniProt Q01721 39-315, looked up)
chain: LAHGRRLICWQALLQCQGEPDCSYAYSQYAEACAPVLAQRGGADAPGPAGAFPASAASSPRWRCPSHCISALIQLNHTRRGPALEDCDCAQDEHCRSTKRAIEPCLPRTSSVGPGAGAGSVMGCTEARRRCDRDSRCNLALSRYLAYCGKLFNGLRCTDECRAVIEDMLAVPKAALLNDCVCDGLERPICESVKENMARLCFGPDASNGPGSSGSDGGLDDYYDEEYDDEQRAGAAGGEQPLDDDDGLARPGGGAAAAGGRGDLPHGPGRRSSSSGS
With B1 the binding [2] was “binds”, the binding [3] was “binds” and the binding [4] was “binds”. The binding [5] was “binds”.
